Source: PubChem BioAssay AID1671190 (National Center for Advancing Translational Sciences (NCATS), 2021)
The campaign covered roughly 580,000 compounds. About 6,100 (1.1%) were called active. This list was built around the results that the source calls inconclusive (neither active nor inactive); the mix of calls is not that of the screen. The call rests on the fitted dose curve; in most records, active means well fitted inhibition curve with a large enough effect; inconclusive means small, poorly fitted or top-dose-only effect, or another doubt; inactive means no such curve, though single readings can be large or run the other way. Potencies beside an inconclusive call are fits to weak or partial responses and may not hold up.

By UniProt entry, the sequences of proteins in these tests, tags left out. Where a name states a change or a piece, a line headed by the entry shows the natural chain unless it says otherwise.
UniProt P18054: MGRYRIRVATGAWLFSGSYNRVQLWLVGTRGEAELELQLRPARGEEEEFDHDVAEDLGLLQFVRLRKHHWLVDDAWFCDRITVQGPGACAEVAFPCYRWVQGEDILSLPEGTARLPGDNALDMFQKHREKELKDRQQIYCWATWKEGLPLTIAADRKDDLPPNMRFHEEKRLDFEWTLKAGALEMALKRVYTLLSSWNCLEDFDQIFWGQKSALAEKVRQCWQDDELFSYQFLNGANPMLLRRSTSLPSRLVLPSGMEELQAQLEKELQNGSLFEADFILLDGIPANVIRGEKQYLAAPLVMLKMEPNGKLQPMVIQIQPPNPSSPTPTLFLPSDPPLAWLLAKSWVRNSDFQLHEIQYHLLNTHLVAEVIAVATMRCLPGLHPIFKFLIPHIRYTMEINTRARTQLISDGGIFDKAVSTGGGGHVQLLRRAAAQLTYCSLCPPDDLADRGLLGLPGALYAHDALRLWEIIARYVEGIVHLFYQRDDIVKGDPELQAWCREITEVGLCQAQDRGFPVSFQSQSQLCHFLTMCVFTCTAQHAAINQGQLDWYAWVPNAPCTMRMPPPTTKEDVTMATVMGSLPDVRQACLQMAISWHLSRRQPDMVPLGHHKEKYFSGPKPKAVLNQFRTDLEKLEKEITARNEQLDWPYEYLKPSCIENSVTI

The compounds below were run against Polyunsaturated fatty acid lipoxygenase ALOX12 (Homo sapiens) (UniProt P18054) (assay: Primary qHTS assay for inhibitors of human arachidonate 12S-lipoxygenase (ALOX12): Round 2). Conditions: purified 12hLO, xylenol orange hydroperoxide absorbance; activity change, negative = inhibition: at 108 µM (top of the series) unless noted.
How it was run: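 Purified human 12hLO (150 nM final) in 25 mM Hepes, 0.01% Triton X-100, pH 7.0 was preincubated 15 min at room temperature with compound. Then 40 uM arachidonic acid was added, 30 min. Hydroperoxide was read by Fe-XO absorbance ratio 573/405 nm.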
On the % scale 0 is the no-effect control and ±100 the full control effect; potency means the concentration at half of the fitted maximal effect.

Row | Structure (SMILES) | activity change, negative = inhibition | Potency
1 | COc1ccc(-c2ccc3ncc(Nc4ccncc4)n3n2)cc1OC | inactive: 18.2% [at 176 µM] | –
2 | Cc1ccccc1/[N+]([O-])=C/c1ccco1 | – | inconclusive: 56.2 µM [inhibitor, partial curve, poor fit]
3 | CC(C)(C)NC(=S)N/N=C\c1ccc(-c2ccc([N+](=O)[O-])cc2)o1 | – | active: 44.7 µM
4 | COc1ccccc1-c1noc(CCCC(=O)Nc2ccc(S(=O)(=O)N3CCC(C)CC3)cc2)n1 | inactive: -2.1% | –
5 | Cc1cc2ncc(C(=O)NC3CCCCC3)cn2n1 | inactive: -2.04% [at 176 µM] | –
6 | CCCN(CCC)C(=O)COc1ccc2c(C)cc(=O)oc2c1 | inactive: -21.3% | –
7 | COc1ccccc1CNC(=O)Cn1c(=O)oc2ccccc21 | inactive: -15.9% | –
8 | O=C(NCc1ccc(Cl)cc1)c1ccnc2[nH]ccc12 | inactive: 2.93% [at 12.5 µM] | –
9 | CCn1c(CC(=O)Nc2ccccc2F)nnc1SCC(=O)Nc1nnc(C)s1 | inactive: 22% | –
10 | Cc1ccc(N(C(=O)Nc2ccccc2)C2=NCCC2)cc1 | – | inconclusive: 112 µM [inhibitor, partial curve, poor fit]
11 | COc1ccc(C(C)NC(=O)Cn2c(C)cc3nc4n(c(=O)c32)CCCC4)cc1 (stereo unspecified) | – | active: 50.1 µM
12 | CCOC(=O)C1=C[C@@H](C)N(S(=O)(=O)c2ccc(C)cc2)[C@H]1c1ccccc1 | – | inconclusive: 56.2 µM [inhibitor, partial curve, poor fit]
13 | Cc1cc2n(n1)SC(Nc1ccc(F)c(Cl)c1)N2 (stereo unspecified) | – | inconclusive: 89.1 µM [inhibitor, partial curve, poor fit]
14 | Cc1cc(O)c(C(C)C)cc1N=Cc1cc([N+](=O)[O-])ccc1O | – | inconclusive: 44.7 µM [inhibitor, partial curve]
15 | O=C(O)/C(=C/c1ccco1)NC(=O)c1ccc(Br)o1 | – | inconclusive: 2.24 µM [inhibitor, full curve, poor fit]
16 | COc1ccc(N2CCN(CC(=O)N3c4ccccc4CC3C)CC2)cc1 (stereo unspecified) | – | inconclusive: 0.501 µM [inhibitor, full curve]
17 | COc1ccc(C(=O)NC2CCN(C(=O)c3cc4c(=O)[nH]c(C)cn4n3)CC2)c(C)c1 | inactive: 14.4% | –
18 | O=c1cnnc(Nc2ccccc2F)[nH]1 | – | inconclusive: 112 µM [inhibitor, single point]
19 | O=C(O)c1cc(N/N=C/c2ccc3c(c2)OCO3)ccc1Cl | inactive: 32.4% | –
20 | N#C/C(=C/c1ccc(I)o1)c1nc2ccccc2[nH]1 | – | inconclusive: 44.7 µM [inhibitor, partial curve, poor fit]
21 | CSCC[C@H](NC(=O)N1C[C@H]2C[C@@H](C1)c1cccc(=O)n1C2)C(=O)Nc1ccc(NC(C)=O)cc1 | inactive: 8.64% | –
22 | COc1ccc(CN2C(=O)c3cccnc3C2O)cc1 (stereo unspecified) | – | inconclusive: 14.1 µM [inhibitor, partial curve, poor fit]
23 | Cc1c(C(=O)N2CCC(C(=O)Nc3ccc4c(c3)OCO4)CC2)oc2ccccc12 | inactive: 15.9% | –
24 | Cc1ccc2nc(NC(=O)c3cc(-c4ccco4)nc4ccccc34)sc2c1 | – | inconclusive: 100 µM [inhibitor, partial curve, poor fit]

Row | Structure (SMILES) | activity change, negative = inhibition | Potency
25 | COC(=O)c1ccoc1COC(=O)c1ccc(C#N)cc1 | – | inconclusive: 112 µM [inhibitor, single point]
26 | O=C1N(Cc2ccc(F)cc2)C[C@H]2CN(Cc3ccncc3F)CCN12 | – | inconclusive: 25.1 µM [inhibitor, full curve, poor fit]
27 | CC(=O)Nc1ccc(C(=O)NNC(=O)Cc2ccccc2)cc1 | inactive: 7.81% | –
28 | CC(C)(C)NC(=O)Cc1n[nH]c(=O)c2ccccc12 | inactive: -6.15% | –
29 | CC(=O)N1c2ccc(S(=O)(=O)NCCC(=O)NCc3ccc(N(C)C)cc3)cc2CC1C (stereo unspecified) | inactive: -7.9% | –
30 | Cc1ccc(OCC(O)CN2CCN(Cc3ccc4c(c3)OCO4)CC2)cc1C (stereo unspecified) | – | inconclusive: 44.7 µM [inhibitor, partial curve, poor fit]
31 | COc1ccc(-n2ccn(CC(=O)Nc3ccccc3C)c2=O)cc1 | inactive: -25.9% | –
32 | CC(C)NC(=O)C(=O)NCCC1CCCC1 | inactive: -32.8% | –
33 | CC1=CC(=O)C(C(=O)/C=C/c2cccs2)C(=O)O1 (stereo unspecified) | – | inconclusive: 4.47 µM [inhibitor, full curve, poor fit]
34 | CCCSc1nc(=O)c2c(n1C)NC(=O)CC2c1cc(C)ccc1C (stereo unspecified) | inactive: -19.3% | –
35 | CCOc1cc(N2C(=O)CC3CS(=O)(=O)CC32)c(OCC)cc1NC(=O)c1ccccc1 (stereo unspecified) | inactive: -2.82% | –
36 | COc1cc(CNC2CCCC2)cc(OC)c1OC | inactive: 1.45% [at 57.4 µM] | –
37 | O=C(c1ccncc1)N1CCCC(c2nnc3n2CCNC3)C1 (stereo unspecified) | – | inconclusive: 3.98 µM [inhibitor, full curve, poor fit]
38 | O=C(Nc1cccnc1)c1ccnc(-c2nnc3ccc(N4CCOCC4)nn23)c1 | – | inconclusive: 44.7 µM [inhibitor, full curve]
39 | COC(=O)CNC(=O)Nc1c(-c2cccnc2)[nH]c2ccccc12 | – | inconclusive: 126 µM [inhibitor, single point]
40 | CCn1cc2nc(SCc3cc(C)ccc3C)n(Cc3ccc(C)cc3)c(=O)c2n1 | – | inconclusive: 22.4 µM [inhibitor, partial curve, poor fit]
41 | CC(C)N(C(=O)CSc1nc2c([nH]1)c(=O)n(C)c(=O)n2C)c1ccccc1 | – | inconclusive: 35.5 µM [inhibitor, partial curve, poor fit]
42 | Cc1ccc(S(=O)(=O)n2ccc3c(OCCOCCNCc4ccc(F)cc4)cccc32)cc1 | – | inconclusive: 79.4 µM [inhibitor, partial curve, poor fit]
43 | Fc1ccc(-c2nc(COc3ccc(Oc4ccccn4)cc3)co2)cc1 | – | inconclusive: 8.91 µM [inhibitor, partial curve, poor fit]
44 | COCCOc1nc(-c2ccc(Cl)c(Cl)c2)n(-c2ccc(NC(=O)CCl)cc2)n1 | – | inconclusive: 17.2 µM [inhibitor, single point]
45 | CCCNC(=O)CC1CCCN(c2cn[nH]c(=O)c2)C1 (stereo unspecified) | inactive: -3.76% | –
46 | COc1ccc(C(=O)NC(=S)Nc2ccc(N3CCCC3)cc2)cc1 | – | inconclusive: 25.1 µM [inhibitor, full curve]
47 | COc1cc(OC)cc(C(=O)NC2CCSc3ccccc32)c1 (stereo unspecified) | inactive: 79.4% | –
48 | Cc1cc2cc(NC(=O)c3ccc(C)c(C)c3)ccc2[nH]1 | inactive: -1.28% | –

Row | Structure (SMILES) | activity change, negative = inhibition | Potency
49 | COc1ccc(OC)c(/C=C2\SC(=S)N(NS(=O)(=O)c3ccccc3)C2=O)c1 | – | inconclusive: 89.1 µM [inhibitor, partial curve, poor fit]
50 | Cc1cc(C)nc(CCNC(=O)C2CCC(=O)N(Cc3ccccc3F)C2)n1 (stereo unspecified) | inactive: -28.7% | –
51 | CCCCOc1cccc(C2/C(=C(\O)c3ccc4c(c3)OCCO4)C(=O)C(=O)N2CCN2CCOCC2)c1 (stereo unspecified) | – | inconclusive: 4.47 µM [inhibitor, full curve, poor fit]
52 | O=C1c2ccccc2C(=O)N1CC#CCN1CCN(C(c2ccccc2)c2ccccc2)CC1 | – | inconclusive: 39.8 µM [inhibitor, single point]
53 | NCCC(=O)N1CCCC(N2CCN(Cc3ccc4c(c3)OCO4)CC2)C1 (stereo unspecified) | – | inconclusive: 12.6 µM [inhibitor, full curve]
54 | Cc1ccc(C2c3cccn3CCN2S(=O)(=O)c2ccc([N+](=O)[O-])cc2)cc1 (stereo unspecified) | inactive: -28.4% | –
55 | Cc1ccc2nc(N3CCN(C(=O)C4COc5ccccc5O4)CC3)sc2c1 (stereo unspecified) | – | inconclusive: 141 µM [inhibitor, partial curve, poor fit]
56 | CCc1cc(C(N)=O)sc1C | inactive: -2.49% | –
57 | Cc1ccnc(NS(=O)(=O)c2ccc(NC(=O)c3cc(=O)c4ccc(C)c(C)c4o3)cc2)n1 | – | inconclusive: 39.8 µM [inhibitor, partial curve, poor fit]
58 | COCCNC(=S)Nc1ccc(Cl)c(Cl)c1 | – | inconclusive: 50.1 µM [inhibitor, partial curve, poor fit]
59 | COC(=O)c1ccc(CSc2nc3c([nH]c4ccccc43)c(=O)n2-c2cccc(OC)c2)o1 | – | inconclusive: 35.5 µM [inhibitor, partial curve, poor fit]
60 | CCc1ccc(NC(=O)C(C#N)=C2CCC(C(C)(C)C)CC2)cc1 (stereo unspecified) | – | inconclusive: 11.2 µM [inhibitor, partial curve, poor fit]
61 | COC(=O)C1=C(C)NC(=O)NC1c1ccc(-c2ccccc2Cl)o1 (stereo unspecified) | inactive: -10.6% | –
62 | O=C(/C=C/c1ccc([N+](=O)[O-])cc1)/C=C/c1ccco1 | – | active: 17.8 µM
63 | O=C(c1ccccc1Nc1ccc(SC(F)F)cc1)N(C1CCCCC1)C1CCCCC1 | – | inconclusive: 28.2 µM [inhibitor, partial curve, poor fit]
64 | O=C(Nc1nnc(CCN2CCCCC2)s1)c1ccc(Cl)cc1Cl | – | inconclusive: 35.5 µM [inhibitor, partial curve, poor fit]
65 | CCc1nc(C)cn1S(=O)(=O)c1cc(Br)c(C)cc1OC | – | inconclusive: 112 µM [inhibitor, single point]
66 | CCC1(CC(C)C)SC(N)=NC1=O (stereo unspecified) | – | inconclusive: 126 µM [inhibitor, partial curve, poor fit]
67 | CCOc1ccc(NS(=O)(=O)c2ccc(C(=O)NNC(=O)c3ccccc3O)cc2)cc1 | – | inconclusive: 50.1 µM [inhibitor, partial curve, poor fit]
68 | COc1cccc(C2c3[nH]c4ccccc4c3CCN2Cc2cnn(C)c2)c1 (stereo unspecified) | – | inconclusive: 100 µM [inhibitor, partial curve, poor fit]
69 | O=C(Nc1ccccc1-c1nc(Cc2ccccc2)no1)c1cccnc1 | inactive: 8.09% | –
70 | C/C(=N\NC(=O)c1ccc(NS(=O)(=O)c2cccs2)cc1)c1cccs1 | inactive: 10.2% | –
71 | Cc1nn(Cc2ccccc2)c(C)c1NC(=O)c1cc(C(C)C)on1 | inactive: -5.72% | –

Arranged by length of the SMILES (rising): some entries from above.
Row | Structure (SMILES) | activity change, negative = inhibition | Potency
48 | Cc1cc2cc(NC(=O)c3ccc(C)c(C)c3)ccc2[nH]1 | inactive: -1.28% | –
62 | O=C(/C=C/c1ccc([N+](=O)[O-])cc1)/C=C/c1ccco1 | – | active: 17.8 µM
24 | Cc1ccc2nc(NC(=O)c3cc(-c4ccco4)nc4ccccc34)sc2c1 | – | inconclusive: 100 µM [inhibitor, partial curve, poor fit]
49 | COc1ccc(OC)c(/C=C2\SC(=S)N(NS(=O)(=O)c3ccccc3)C2=O)c1 | – | inconclusive: 89.1 µM [inhibitor, partial curve, poor fit]
21 | CSCC[C@H](NC(=O)N1C[C@H]2C[C@@H](C1)c1cccc(=O)n1C2)C(=O)Nc1ccc(NC(C)=O)cc1 | inactive: 8.64% | –
